Experimental data from the supplement of paper PMC12823440, “Inhibitors supercharge kinase turnover through native proteolytic circuits” (Nature, 2025).
Where a name gives a salt, the structure may show the parent alone. The list shows a part of the results. Hit calls seldom repeat between salt and free forms of one compound.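 Kinases were expressed as nanoluciferase fusions in K562 cells and luminescence was read every 4 h between 2 and 18 h as percent of control, DMSO set to 100% and a positive control to 0%. A time point counts as decreased when the signal drops significantly (2 sigma). The hit call is the authors' own, does not follow from the count of time points alone, and its rule is not shown.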

The chains behind the UniProt entries cited, without tags or fusion partners. Where a name states a change or a piece, a line headed by the entry shows the natural chain unless it says otherwise.
UniProt Q9BRS2: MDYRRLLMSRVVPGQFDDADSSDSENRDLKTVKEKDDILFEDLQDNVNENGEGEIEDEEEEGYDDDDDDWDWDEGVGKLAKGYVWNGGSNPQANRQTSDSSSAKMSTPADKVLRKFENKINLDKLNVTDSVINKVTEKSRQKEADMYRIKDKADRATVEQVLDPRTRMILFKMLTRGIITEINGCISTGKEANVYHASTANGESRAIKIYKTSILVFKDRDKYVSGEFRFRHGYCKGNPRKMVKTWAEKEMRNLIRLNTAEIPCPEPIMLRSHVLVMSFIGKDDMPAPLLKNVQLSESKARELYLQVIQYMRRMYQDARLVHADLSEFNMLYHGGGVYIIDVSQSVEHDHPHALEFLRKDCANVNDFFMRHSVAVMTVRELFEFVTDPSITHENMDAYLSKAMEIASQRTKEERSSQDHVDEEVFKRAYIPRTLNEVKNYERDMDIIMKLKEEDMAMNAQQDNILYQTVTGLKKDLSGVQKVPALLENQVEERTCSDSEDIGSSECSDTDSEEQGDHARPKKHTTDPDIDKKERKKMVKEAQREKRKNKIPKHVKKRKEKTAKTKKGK

target: RIOK1 (UniProt Q9BRS2); assay: kinase-Nluc reporter destabilization hit call (1 = scored as downregulated) (binary); higher = compound decreases kinase abundance; settings: 2.5 µM; K562; 2-18 h

kinase-Nluc reporter destabilization hit call, inactive:
Cc1cccc(-c2[nH]c(CNc3ccccc3F)nc2-c2ccc3ncnn3c2)n1 [Vactosertib] 0
c1cc(-c2cnn3cc(-c4ccc(OCCN5CCCCC5)cc4)cnc23)ccn1 [Dorsomorphin (dihydrochloride)] 0
Oc1cccc(-c2nc(N3CCOCC3)c3oc4ncccc4c3n2)c1 [PI-103 (Hydrochloride)] 0
C=CC(=O)Nc1cc(Nc2nccc(-c3cn(C)c4ccccc34)n2)c(OC)cc1N(C)CCN(C)C [Osimertinib mesylate] 0
CNC(=O)c1cc(Oc2ccc(NC(=O)Nc3ccc(Cl)c(C(F)(F)F)c3)c(F)c2)ccn1 [Regorafenib (monohydrate)] 0
Cc1cccc(-c2[nH]c(CNc3ccccc3F)nc2-c2ccc3ncnn3c2)n1 [Vactosertib (Hydrochloride)] 0
COc1ccc(S(=O)(=O)Nc2ccccc2CN(C)C/C=C/c2ccc(Cl)cc2)cc1 [KN-92 (hydrochloride)] 0
CN(C)C(=O)c1cc2cnc(Nc3ccc(N4CCNCC4)cn3)nc2n1C1CCCC1 [Ribociclib hydrochloride] 0

Reprinted at random: 2 records from the list
kinase-Nluc reporter destabilization hit call, inactive:
Cc1cccc(-c2[nH]c(CNc3ccccc3F)nc2-c2ccc3ncnn3c2)n1 [Vactosertib (Hydrochloride)] 0
COc1ccc(S(=O)(=O)Nc2ccccc2CN(C)C/C=C/c2ccc(Cl)cc2)cc1 [KN-92 (hydrochloride)] 0
